The values that follow come from paper PMC12866788, “Alternative Pathway for Methyl Supply through the Coupling of SHMT1 and PEMT to Maintain Astrocytic Homeostasis in Parkinson's Disease” (Advanced Science, 2025).

These are yes or no findings as the source states them, for the method shown. Binding seen in cells or lysates may run through a third protein. Some entries that bind do so weakly or less than the wild type.

For one experiment, the target named is T1, SHMT1, overexpressed (UniProt P50431).
T1 sequence: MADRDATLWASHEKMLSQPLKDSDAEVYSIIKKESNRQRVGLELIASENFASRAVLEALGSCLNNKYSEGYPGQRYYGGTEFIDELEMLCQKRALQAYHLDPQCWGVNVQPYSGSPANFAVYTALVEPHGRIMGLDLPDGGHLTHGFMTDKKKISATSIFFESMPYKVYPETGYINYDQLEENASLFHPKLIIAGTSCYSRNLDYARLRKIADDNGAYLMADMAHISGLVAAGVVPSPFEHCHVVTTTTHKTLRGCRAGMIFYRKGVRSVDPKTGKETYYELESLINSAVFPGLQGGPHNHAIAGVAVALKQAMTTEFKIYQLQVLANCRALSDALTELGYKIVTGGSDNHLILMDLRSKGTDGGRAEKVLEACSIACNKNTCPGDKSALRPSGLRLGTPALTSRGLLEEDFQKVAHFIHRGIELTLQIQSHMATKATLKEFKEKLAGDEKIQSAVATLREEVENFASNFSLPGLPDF
The experiment is described as follows: co-IP; cell lysates (cells not named) in NP-40 lysis buffer with protease inhibitors; 1 mg total protein with anti-PEMT or anti-SHMT1 antibody overnight at 4 °C, Protein A/G agarose beads, immunoblotting; also cells overexpressing SHMT1 in the MPP+ model (PEMT in the washing solution) and cells pretreated with Isoorientin (10 µM) and MPP+ (500 µM). A general note: A western blot detects proteins with antibodies after separation by electrophoresis.

Experiment [1] addresses T2, Serine Hydroxymethyltransferase 1 (SHMT1) (UniProt P50431).
T2 sequence: T1 sequence
The experiment is described as above.

Experiment [2] addresses T3, Serine Hydroxymethyltransferase 1 (SHMT1), endogenous mouse (mouse (endogenous in primary astrocytes and midbrain tissue)) (UniProt P50431).
T3 sequence: T1 sequence
The experiment is described as follows: co-IP; midbrain tissue proteins of mice of the Isoorientin and MPTP/p groups, immunoprecipitated with anti-SHMT1 antibody, immunoblotting.

The target in experiment [3] is T3, Serine Hydroxymethyltransferase 1 (SHMT1), endogenous mouse (mouse (endogenous in primary astrocytes and midbrain tissue)). The experiment is described as follows: proximity ligation; Duolink PLA in primary astrocytes pretreated with MPP+ (500 µM) or Isoorientin (10 µM); rabbit anti-SHMT1 and mouse anti-PEMT primary antibodies.

B1: phosphatidylethanolamine N-methyltransferase (PEMT) (protein, UniProt Q61907 1-199)
chain: MSWLLGYMDPTEPSFVAAVITIVFNPLFWNVVARWEQRTRKLSRAFGSPHLACYSLGICILLLNILRSHCFTQAMMSQPKMEGLDNHTTYFLGLAFLGWGFVFVLSSFYALGFTGTFLGDYFGILKESRVTTFPFSVLDNPMYWGSTANYLGWALMHASPTGLLLTVLVAIVYVVALLYEEPFTAEIYRQKATRLHKRS
Turning to B1, the binding result is “binds” with SHMT1, overexpressed and “binds” in experiment [1].

B2: phosphatidylethanolamine N-methyltransferase (PEMT), endogenous mouse (protein, UniProt Q61907 1-199)
chain: B1 chain
As to B2, the binding result in experiment [2] and in experiment [3] was “binds” each time.
